# Assay results published in paper PMC7865656.
# By UniProt entry, the sequences of proteins in these tests, tags left out.
# UniProt P01106: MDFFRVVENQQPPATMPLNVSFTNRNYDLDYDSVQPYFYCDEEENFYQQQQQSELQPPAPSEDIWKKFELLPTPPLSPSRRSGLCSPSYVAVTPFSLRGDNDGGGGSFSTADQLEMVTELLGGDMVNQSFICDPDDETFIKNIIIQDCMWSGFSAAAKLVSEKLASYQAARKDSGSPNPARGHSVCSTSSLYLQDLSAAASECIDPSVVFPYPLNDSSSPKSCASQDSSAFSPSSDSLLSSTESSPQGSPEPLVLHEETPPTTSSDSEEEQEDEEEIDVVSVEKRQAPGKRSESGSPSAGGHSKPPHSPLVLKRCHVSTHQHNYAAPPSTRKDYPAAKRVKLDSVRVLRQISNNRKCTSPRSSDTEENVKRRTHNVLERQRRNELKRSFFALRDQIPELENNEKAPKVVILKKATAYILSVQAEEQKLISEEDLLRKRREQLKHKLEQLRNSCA
# UniProt Q969H0: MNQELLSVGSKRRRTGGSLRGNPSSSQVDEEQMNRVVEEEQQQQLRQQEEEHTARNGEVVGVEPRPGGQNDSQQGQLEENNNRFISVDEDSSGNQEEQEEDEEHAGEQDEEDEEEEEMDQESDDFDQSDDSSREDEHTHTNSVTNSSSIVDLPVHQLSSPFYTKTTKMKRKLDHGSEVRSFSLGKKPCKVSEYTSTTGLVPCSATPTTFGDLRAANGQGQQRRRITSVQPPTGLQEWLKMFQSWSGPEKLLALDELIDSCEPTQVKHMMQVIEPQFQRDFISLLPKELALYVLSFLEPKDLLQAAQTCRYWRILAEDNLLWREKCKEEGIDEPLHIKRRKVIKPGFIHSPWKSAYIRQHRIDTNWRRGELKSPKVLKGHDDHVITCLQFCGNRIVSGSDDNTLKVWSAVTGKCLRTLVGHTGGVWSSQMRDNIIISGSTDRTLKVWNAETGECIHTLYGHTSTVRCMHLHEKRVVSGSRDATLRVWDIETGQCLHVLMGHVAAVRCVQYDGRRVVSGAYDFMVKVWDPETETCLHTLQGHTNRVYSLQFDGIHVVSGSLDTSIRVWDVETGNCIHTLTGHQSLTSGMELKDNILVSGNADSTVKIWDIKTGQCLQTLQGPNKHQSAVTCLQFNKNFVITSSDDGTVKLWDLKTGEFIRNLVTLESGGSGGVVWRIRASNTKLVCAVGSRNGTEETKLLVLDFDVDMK
# UniProt P53350: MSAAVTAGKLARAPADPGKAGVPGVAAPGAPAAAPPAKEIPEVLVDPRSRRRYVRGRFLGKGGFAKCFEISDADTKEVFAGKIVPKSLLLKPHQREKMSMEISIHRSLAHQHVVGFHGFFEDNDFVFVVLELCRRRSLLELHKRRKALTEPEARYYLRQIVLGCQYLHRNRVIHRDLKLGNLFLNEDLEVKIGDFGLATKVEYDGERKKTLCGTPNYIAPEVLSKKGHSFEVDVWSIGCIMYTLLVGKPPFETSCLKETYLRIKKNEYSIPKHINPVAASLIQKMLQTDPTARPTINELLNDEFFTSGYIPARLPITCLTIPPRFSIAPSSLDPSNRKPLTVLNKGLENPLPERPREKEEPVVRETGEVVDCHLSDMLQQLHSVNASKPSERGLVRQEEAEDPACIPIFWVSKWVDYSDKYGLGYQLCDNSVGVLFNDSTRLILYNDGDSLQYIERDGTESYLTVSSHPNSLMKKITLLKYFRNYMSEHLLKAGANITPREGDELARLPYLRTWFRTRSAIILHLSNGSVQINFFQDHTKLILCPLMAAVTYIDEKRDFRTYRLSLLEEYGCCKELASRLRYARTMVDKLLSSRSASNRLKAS
# These are yes or no findings as the source states them, for the method shown. In cells and extracts the contact can be indirect. Some entries that bind do so weakly or less than the wild type.
# Target: c-MYC (human (endogenous in D458)) (UniProt P01106)
# Assay: co-IP; lysates of D458 cells (RIPA buffer) immunoprecipitated with an anti-c-MYC antibody and Dynabeads; immunoblot with anti-PLK1 or anti-FBXW7 antibodies; IgG as control for specificity; endogenous proteins
row,binding,Substance
1,binds,FBXW7 (from UniProt Q969H0 1-707)
2,binds,Polo-like kinase 1 (PLK1) (from UniProt P53350 1-603) (enzyme)
